# PubChem BioAssay AID504467 (National Center for Advancing Translational Sciences (NCATS), 2011)
# Out of some 330,000 compounds screened, about 7,700 (2.3%) were called active. Inconclusive means that the source gave no clear call. Such entries were picked first, then a sample of the others. Calls follow the shape of the dose curve; as a rule, active = well fitted inhibition curve with a large enough effect; inconclusive = small, poorly fitted or top-dose-only effect, or effect the other way; inactive = flat fitted curve, though single readings scatter. Potencies of inconclusive entries are doubtful fits and often do not repeat.
# Assay: qHTS screen for small molecules that inhibit ELG1-dependent DNA repair in human embryonic kidney (HEK293T) cells expressing luciferase-tagged ELG1; also: nearly all actives have a fitted effect of over 55% in size
# Details: HEK293T ELG1-luciferase reporter, luminescence, 16 h, DNA damage induced by 5-fluorouridine; series mostly up to 46.1 µM
# Outline: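 Reporter activity after DNA damage by 5-fluorouridine is monitored. Compound-treated cells incubate 16 hr at 37 °C, then ONE-Glo is added for 30 min before luminescence reading.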
# Potency is read from the fitted curve at half-maximal effect.
row,Compound,Potency
1,S=C(Nc1ccc(Cl)cc1Cl)NC1CCCCC1,"inconclusive: 32.6 µM [activator, partial curve, poor fit]"
2,COc1ccc(S(=O)(=O)N2CCOC2CNC(=O)C(=O)NCCc2ccccc2)cc1 (stereo not given),active: 20.6 µM
3,O=[N+]([O-])c1cccc(-c2ccc(/C=N/n3c(-c4ccccc4)n[nH]c3=S)o2)c1,"inconclusive: 23.1 µM [activator, single point]"
4,CCOc1ccc(C2C(C#N)=C(N)N3C(=C2C#N)Sc2ccccc23)cc1 (stereo not given),"inconclusive: 25.9 µM [activator, single point]"
5,CC1CCN(C(=O)CN2C(=O)C(=O)N(C(C)C)C2=O)c2ccccc2S1 (stereo not given),"inconclusive: 7.3 µM [activator, partial curve, poor fit]"
6,Cc1cc2oc(=O)c3c(c2cc1OC(=O)c1ccco1)CCCC3,"inconclusive: 16.4 µM [inhibitor, partial curve, poor fit]"
7,O=C(COC(=O)c1cc(Cl)ccc1[N+](=O)[O-])Nc1cccc2ccccc12,"inconclusive: 5.17 µM [inhibitor, partial curve, poor fit]"
8,O=C(Nc1ccc2c(c1)OCCO2)c1ccc2ccccc2n1,"inconclusive: 2.59 µM [activator, full curve]"
9,COc1ccc(OCc2cc(/C=N\NC(=O)c3ccccc3)ccc2OC)cc1,"inconclusive: 14.6 µM [activator, partial curve]"
10,O=C(CCc1nnc(CCCc2ccccc2)o1)NCCCC1CCCC1,"inconclusive: 20.6 µM [activator, partial curve]"
11,Cn1c(=S)[nH]c2sc3c(c2c1=O)CCC(C(C)(C)C)C3 (stereo not given),"inconclusive: 3.26 µM [activator, partial curve]"
12,O=C(CN1CCC(C(=O)c2cccc(F)c2)CC1)NCc1cccs1,"inconclusive: 8.2 µM [inhibitor, single point]"
13,Cc1ccc(-c2cc(C(=O)NCc3ccc4c(c3)OCO4)no2)cc1,"inconclusive: 4.11 µM [activator, full curve, poor fit]"
14,Cc1ccc(NC(=O)COC(=O)CC2CCCC2)cc1Cl,inactive
15,Cc1ccc(C(C)C)cc1OCC(=O)NNC(=O)Nc1ccccc1,"inconclusive: 10.3 µM [inhibitor, partial curve, poor fit]"
16,O=C(O)c1ccc(N/C(=N\S(=O)(=O)c2ccc(Cl)cc2)c2ccccc2)cc1,"inconclusive: 18.3 µM [activator, single point]"
17,O=C(O)COc1ccccc1/C=N/NC(=O)CNC(=O)c1ccc(F)cc1,inactive
18,Cc1ccc(C(=O)NNC(=O)CSc2nnc(-c3ccncc3)n2-c2ccc(C)cc2)cc1,inactive
19,O=C1CC(N2CCC(c3nc4ccccc4s3)CC2)C(=O)N1Cc1ccccc1 (stereo not given),"inconclusive: 23.1 µM [inhibitor, partial curve]"
20,CCOC(=O)c1sc(NC(=O)CSc2ncccn2)c(C#N)c1C,"inconclusive: 18.4 µM [inhibitor, single point]"
21,COc1ccccc1NC(=O)C1CCCN(c2ncnc3c2nc2n3CCCCC2)C1 (stereo not given),active: 20.6 µM
22,CCOc1cccc(C(=O)Nc2ccncc2)c1,"inconclusive: 6.51 µM [inhibitor, full curve]"
23,Cc1cc(Cn2nc(C(=O)NCc3cccc(C(F)(F)F)c3)cc2-c2ccccc2)on1,inactive
24,O=C(COc1ccc(S(=O)(=O)N2CCCC2)cc1Cl)NCc1cccnc1,inactive

row,Compound,Potency
1,CCOc1ccc(OCC(O)CNC2CCN(Cc3ccccc3)CC2)cc1 (stereo not given),inactive
2,Cc1ccc(O)c(Nc2ncnc3ccccc23)c1,"inconclusive: 29.1 µM [inhibitor, single point]"
3,O=C(CN1C(=O)NC2(CCCCCCC2)C1=O)NCc1ccccc1Cl,inactive
4,CC(C)[C@H](NC(=O)c1c(F)cccc1F)C(=O)N1CCN(c2ccc(F)cc2)CC1,"inconclusive: 32.6 µM [inhibitor, partial curve, poor fit]"
5,O=C(N/N=C/c1cccc(O)c1)NC1CCCCC1,"inconclusive: 25.9 µM [activator, single point]"
6,O=C(N/N=C\c1c(O)ccc2ccccc12)c1cncc(Br)c1,"inconclusive: 6.51 µM [inhibitor, single point]"
7,O=C(NCCN1CCN(C(=O)c2ccc(F)cc2)CC1)C(=O)NCc1ccccc1,inactive
8,COc1ccc(Cc2nc(C(=O)Nc3ccc(OC)cc3)cs2)cc1,"inconclusive: 23.1 µM [inhibitor, partial curve, poor fit]"
9,CC(C)/C=C1\CC/C(=C\c2cccnc2)C1=O,"inconclusive: 20.6 µM [activator, partial curve]"
10,CCCOc1ccc(N2C(=O)CC(N3CCN(c4ccc([N+](=O)[O-])cc4)CC3)C2=O)cc1 (stereo not given),active: 2.06 µM
11,Cc1ccc(/C=N/N2CCN(Cc3ccccc3)CC2)s1,"inconclusive: 29.1 µM [activator, single point]"
12,COc1ccc2c(c1OC)C(=O)N1N=C(c3ccc(-c4ccccc4)cc3)CC21 (stereo not given),inactive
13,CC(=O)c1c(OC(=O)c2ccco2)c2ccccc2n1C,"inconclusive: 6.51 µM [inhibitor, full curve]"
14,COc1cccc(-c2nn(-c3ccccc3)cc2CN(C)Cc2ccno2)c1,"inconclusive: 29.1 µM [inhibitor, single point]"
15,COc1ccc(CSC(=N)N)cc1[N+](=O)[O-],"inconclusive: 14.6 µM [inhibitor, partial curve]"
16,C=CCn1c(C)cc(C(=O)COc2ccc(S(=O)(=O)N3CCCC3)cc2[N+](=O)[O-])c1C,"inconclusive: 32.6 µM [inhibitor, single point]"
17,NC(=O)c1ccsc1NC(=O)COC(=O)c1c(F)cccc1Cl,"inconclusive: 13 µM [activator, partial curve]"
18,Cc1cccc(CSc2nc3[nH]ncc3c(=O)[nH]2)c1,"inconclusive: 16.4 µM [activator, partial curve]"
19,Cc1cc[n+](CC(=O)c2ccccc2)c2ccccc12,inactive
20,CN(C)c1ccc(/C=C2\Oc3ccc(C#Cc4cccc(N)c4)cc3C2=O)cc1,inactive
21,CC(=O)Nc1ccc(N/C=C/C(=O)c2ccc(C)o2)cc1,"inconclusive: 14.6 µM [activator, partial curve]"
22,Cc1ccc(Nc2nc3c(c(=O)[nH]2)CCCC3)cc1,"inconclusive: 20.6 µM [activator, partial curve]"
23,C#CCOC(=O)Nc1cc(C)n(-c2ccccc2)n1,"inconclusive: 18.3 µM [inhibitor, single point]"
24,CC(C)CCNc1c(-c2cccs2)nc2ccccn12,inactive

row,Compound,Potency
1,O=C(c1ccco1)N1CCc2[nH]nc(-c3ccccc3)c2C1,"inconclusive: 29.1 µM [activator, single point]"
2,COc1cc(/C=N/Nc2ncc(C(F)(F)F)cc2Cl)cc(OC)c1O,active: 13 µM
3,CCCN(CCC)C(=O)C[n+]1cccc(/C=N/O)c1,inactive
4,CC(=O)N1CCN(c2ccc(NC(=O)c3ccc([N+](=O)[O-])o3)cc2Cl)CC1,active: 18.3 µM
5,CCC(c1nnnn1CCc1ccccc1)N(Cc1ccco1)Cc1cc2cc(C)cc(C)c2[nH]c1=O (stereo not given),"inconclusive: 8.2 µM [inhibitor, single point]"
6,Cc1occc1-c1nnc(SCc2cc(=O)n3cc(Br)ccc3n2)n1C,inactive
7,COc1ccc(CN2C=C3C(=O)C(C)(OC(=O)C4CCCC4)C(=O)C=C3C=C2c2ccsc2)cc1 (stereo not given),inactive
8,O=C(O)c1ccc(/C=N/Nc2ccc(F)cc2F)cc1,"inconclusive: 0.58 µM [activator, partial curve]"
9,C/C(=N\Nc1nc2ccccc2s1)c1ccc(Br)s1,inactive
10,COc1ccc(NC(=O)c2ccc(NC(=O)CSc3nccc(=O)[nH]3)cc2)cc1,"inconclusive: 18.3 µM [activator, single point]"
11,CC(C)OCCCNC(=S)N1CCC(C(=O)c2ccc3c(c2)OCCO3)CC1,"inconclusive: 32.6 µM [inhibitor, partial curve, poor fit]"
12,CN(C)CCCN(C(=O)c1ccco1)c1nc(-c2ccc(Cl)cc2)cs1,inactive
13,CN(C)c1ccc(P(=O)(OCc2ccccc2)C(O)c2ccc(Br)cc2)cc1 (stereo not given),inactive
14,Fc1ccc(-c2cnn3c(-c4ccncc4)ccnc23)cc1,"inconclusive: 2.31 µM [activator, partial curve]"
15,COc1ccccc1NC(=O)/C=C\C(=O)O,"inconclusive: 23.1 µM [activator, partial curve, poor fit]"
16,COc1cc(CNc2nc(C)c([N+](=O)[O-])c(C)c2C#N)cc(OC)c1,"inconclusive: 23.1 µM [inhibitor, single point]"
17,O=C(NCC1CCCO1)C(=O)N/N=C/c1cc(Cl)ccc1O (stereo not given),"inconclusive: 14.6 µM [inhibitor, partial curve, poor fit]"
18,O=C1S/C(=C\c2ccc(O)c([N+](=O)[O-])c2)C(=O)N1Cc1cccc([N+](=O)[O-])c1,"inconclusive: 23.1 µM [inhibitor, partial curve]"
19,Cc1ccccc1C(=O)NCC(=O)OC1CCCCC1=O (stereo not given),"inconclusive: 25.9 µM [activator, single point]"
20,COc1cccc(C(=O)NN2c3ccccc3CCc3ccccc32)c1,"inconclusive: 29.1 µM [activator, single point]"
21,Cc1ccccc1NC1=CC(=O)CC(C)(C)C1,inactive
22,CC(=O)N1N=C(c2ccccc2)OC1c1ccc([N+](=O)[O-])s1 (stereo not given),"inconclusive: 29.1 µM [activator, single point]"

# Single values from the entries so far.
# Potency with `O=C(O)c1ccc(N/C(=N\S(=O)(=O)c2ccc(Cl)cc2)c2ccccc2)cc1` reads inconclusive: 18.3 µM [activator, single point]
# Potency with `CCCOc1ccc(N2C(=O)CC(N3CCN(c4ccc([N+](=O)[O-])cc4)CC3)C2=O)cc1` (stereo not given) reads active: 2.06 µM
# Potency with `O=[N+]([O-])c1cccc(-c2ccc(/C=N/n3c(-c4ccccc4)n[nH]c3=S)o2)c1` reads inconclusive: 23.1 µM [activator, single point]
# Potency with `COc1ccc(Cc2nc(C(=O)Nc3ccc(OC)cc3)cs2)cc1` reads inconclusive: 23.1 µM [inhibitor, partial curve, poor fit]
